PubChem BioAssay AID1259425, University of Nebraska Medical Center | 2018
Purpose: 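Compare each knockdown with KSR1 silencing using changes in marker transcripts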 (primary screen). Cell system: HCT116 human colon cancer cells. Reagent: siRNA pool against human genes, 50 nM siRNA. Read-out: 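mRNA of six signature genes measured together by branched-DNA assay after 50 nM siRNA pool, blank removed, divided by geometric mean of two housekeeping genes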. Direction: BNIP3L mRNA: higher = more BNIP3L transcript after knockdown; NDRG1 mRNA: higher = more NDRG1 transcript after knockdown.
Here is a random part of about 14,000 deposited reagents. Not all columns of the deposit are shown. The record does not give: the time to read-out.

TINF2
- BNIP3L mRNA, set 1: 0.16
- NDRG1 mRNA, set 1: 0.619

HNRNPH2
- BNIP3L mRNA, set 1: 0.128
- NDRG1 mRNA, set 1: 0.447

PLCD4
- BNIP3L mRNA, set 1: 0.179
- NDRG1 mRNA, set 1: 0.337

NAP1L3
- BNIP3L mRNA, set 1: 0.121
- NDRG1 mRNA, set 1: 0.17

MYO5C
- BNIP3L mRNA, set 1: 0.071
- NDRG1 mRNA, set 1: 0.122

CASQ2
- BNIP3L mRNA, set 1: 0.0993
- NDRG1 mRNA, set 1: 0.183

MRO
- BNIP3L mRNA, set 1: 0.144
- NDRG1 mRNA, set 1: 0.509

DENND10P1
- BNIP3L mRNA, set 1: 0.0492
- NDRG1 mRNA, set 1: 0.146

AAMDC
- BNIP3L mRNA, set 1: 0.165
- NDRG1 mRNA, set 1: 0.235

AURKAIP1
- BNIP3L mRNA, set 1: 0.109
- NDRG1 mRNA, set 1: 0.159

HS6ST1
- BNIP3L mRNA, set 1: 0.0685
- NDRG1 mRNA, set 1: 0.121

VTCN1
- BNIP3L mRNA, set 1: 0.167
- NDRG1 mRNA, set 1: 0.619

BMP5
- BNIP3L mRNA, set 1: 0.0563
- NDRG1 mRNA, set 1: 0.124

CNTN3
- BNIP3L mRNA, set 1: 0.0508
- NDRG1 mRNA, set 1: 0.213

DNAJC13
- BNIP3L mRNA, set 1: 0.359
- NDRG1 mRNA, set 1: 0.546

LINC00839
- BNIP3L mRNA, set 1: 0.509
- NDRG1 mRNA, set 1: 0.257

OR10H2
- BNIP3L mRNA, set 1: 0.131
- NDRG1 mRNA, set 1: 0.135

FZD9
- BNIP3L mRNA, set 1: 0.207
- NDRG1 mRNA, set 1: 1.04

SPTB
- BNIP3L mRNA, set 1: 0.0698
- NDRG1 mRNA, set 1: 0.202

ALCAM
- BNIP3L mRNA, set 1: 0.0373
- NDRG1 mRNA, set 1: 0.216

BPI
- BNIP3L mRNA, set 1: 0.125
- NDRG1 mRNA, set 1: 0.334

WNT9B
- BNIP3L mRNA, set 1: 0.0751
- NDRG1 mRNA, set 1: 0.135

IHH
- BNIP3L mRNA, set 1: 0.115
- NDRG1 mRNA, set 1: 0.153

HDHD3
- BNIP3L mRNA, set 1: 0.0682
- NDRG1 mRNA, set 1: 0.0285

ACKR2
- BNIP3L mRNA, set 1: 0.396
- NDRG1 mRNA, set 1: 0.506

PLRG1
- BNIP3L mRNA, set 1: 0.0628
- NDRG1 mRNA, set 1: 0.215

CSRNP2
- BNIP3L mRNA, set 1: 0.203
- NDRG1 mRNA, set 1: 0.374

RAB40C
- BNIP3L mRNA, set 1: 0.104
- NDRG1 mRNA, set 1: 0.274

POU3F3
- BNIP3L mRNA, set 1: 0.0624
- NDRG1 mRNA, set 1: 0.237

EPHB6
- BNIP3L mRNA, set 1: 0.0385
- NDRG1 mRNA, set 1: 0.257

ZPR1
- BNIP3L mRNA, set 1: 0.173
- NDRG1 mRNA, set 1: 0.203

HEBP1
- BNIP3L mRNA, set 1: 0.103
- NDRG1 mRNA, set 1: 0.596

PTTG2
- BNIP3L mRNA, set 1: 0.191
- NDRG1 mRNA, set 1: 0.177

ZMAT4
- BNIP3L mRNA, set 1: 0.191
- NDRG1 mRNA, set 1: 0.316

TFDP1
- BNIP3L mRNA, set 1: 0.0937
- NDRG1 mRNA, set 1: 0.052

TMCC2
- BNIP3L mRNA, set 1: 0.109
- NDRG1 mRNA, set 1: 0.25
